Results taken from patent publication US20080085886A1, “Aza-benzofuranyl compounds and methods of use” (GENENTECH, INC., priority 2006, published 2008).
pIC50: −log10 of the molar value. Where a name gives a salt, the structure may show the parent alone. Some results were stated once for a whole list of compounds, not compound by compound.

Amino acid sequences for entries named in this document (tags omitted).
UniProt Q02750, whole entry S218D/S222D: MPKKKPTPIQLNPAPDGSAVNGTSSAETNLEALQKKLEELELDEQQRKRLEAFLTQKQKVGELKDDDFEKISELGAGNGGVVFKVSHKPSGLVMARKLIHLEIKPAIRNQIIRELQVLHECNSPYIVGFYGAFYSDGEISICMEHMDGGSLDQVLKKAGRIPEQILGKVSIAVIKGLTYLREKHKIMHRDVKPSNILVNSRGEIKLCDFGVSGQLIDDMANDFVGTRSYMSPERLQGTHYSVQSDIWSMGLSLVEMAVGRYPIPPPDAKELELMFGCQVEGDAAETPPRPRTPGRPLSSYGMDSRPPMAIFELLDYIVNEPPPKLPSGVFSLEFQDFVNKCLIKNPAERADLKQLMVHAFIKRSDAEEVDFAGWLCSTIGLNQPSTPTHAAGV

Biological target: Constitutively activated human mutant MEK1 (Homo sapiens, UniProt Q02750)
Experiment: MEK assay (MEK activity assay), Example 1a or 1b
Assay type: biochemical
Conditions: assay described either in Example 1a or 1b; 50 μM ATP, GST-ERK1 substrate, HTRF

SMILES | pIC50
O=C(NCC(O)CO)c1oc2ccncc2c1Nc1ccc(I)cc1F (stereo not shown) [Example 84, 3-(2-fluoro-4-iodophenylamino)-N-(2,3-dihydroxypropyl)furo[3,2-c]pyridine-2-carboxamide] | > 5.00
O=C(c1oc2ccncc2c1Nc1ccc(Br)cc1F)N1CC[C@@H](O)C1 [Example 72, (3-(4-bromo-2-fluorophenylamino)furo[3,2-c]pyridin-2-yl)((R)-3-hydroxypyrrolidin-1-yl)methanone] | > 5.00
O=C(NOC(CO)CO)c1oc2ccncc2c1Nc1ccc(I)cc1F [Example 56, 3-(2-Fluoro-4-iodo-phenylamino)-furo[3,2-c]pyridine-2-carboxylic acid (2-hydroxy-1-hydroxymethyl-ethoxy)-amide] | > 5.00
O=C(c1oc2ccncc2c1Nc1ccc(I)cc1F)N1CC(O)CO1 (stereo not shown) [Example 28, [3-(2-Fluoro-4-iodo-phenylamino)-furo[3,2-c]pyridin-2-yl]-(4-hydroxy-isoxazolidin-2-yl)-methanone] | > 5.00
CC(C)(CONC(=O)c1oc2ccncc2c1Nc1ccc(I)cc1F)OCc1ccccc1 [Example 51, N-(2-(Benzyloxy)-2-methylpropoxy)-3-(2-Fluoro-4-iodo-phenylamino)furo[3,2-c]pyridine-2-carboxamide] | > 5.00
O=C(NOCCO)c1oc2c(Cl)cncc2c1Nc1ccc(I)cc1F [Example 39, 7-Chloro-3-(2-fluoro-4-iodo-phenyl-amino)-furo[3,2-c]pyridine-2-carboxylic acid (2-hydroxy-ethoxy)-amide] | > 5.00
CN(CCONC(=O)c1oc2ccncc2c1Nc1ccc(I)cc1F)C(=O)OC(C)(C)C [Example 36, (2-{[3-(2-Fluoro-4-iodo-phenylamino)-furo[3,2-c]pyridine-2-carbonyl]-aminooxy}-ethyl)-methyl-carbamic acid tert-butyl ester] | > 5.00
O=C(NOCCN1CCCCC1)c1oc2ccncc2c1Nc1ccc(I)cc1F [Example 58, (2-Fluoro-4-iodo-phenyl amino)-furo[3,2-c]pyridine-2-carboxylic acid (2-piperidin-1-yl-ethoxy)-amide] | > 5.00
CCCONC(=O)c1oc2ccncc2c1Nc1ccc(I)cc1F [Example 49, (2-Fluoro-4-iodo-phenyl amino)-N-propoxyfuro[3,2-c]pyridine-2-carboxamide] | > 5.00
CNCCONC(=O)c1oc2ccncc2c1Nc1ccc(I)cc1F [Example 37, 3-(2-Fluoro-4-iodo-phenylamino)-furo[3,2-c]pyridine-2-carboxylic acid (2-methylamino-ethoxy)-amide] | > 5.00
O=C(NCCC1CC1)c1oc2ccncc2c1Nc1ccc(I)cc1F [Example 64, 3-(2-fluoro-4-iodophenylamino)-N-(2-cyclopropylethyl)furo[3,2-c]pyridine-2-carboxamide] | > 5.00
CN(C)CCCNC(=O)c1oc2ccncc2c1Nc1ccc(I)cc1F [Example 65, 3-(2-fluoro-4-iodophenylamino)-N-(3-(dimethylamino)propyl)furo[3,2-c]pyridine-2-carboxamide] | > 5.00
O=C(NCCCONC(=O)c1oc2ccncc2c1Nc1ccc(I)cc1F)c1cccnc1 [Example 47] | > 5.00
O=C(NOCCO)c1oc2ccncc2c1Nc1ccc(Br)cc1Cl [Example 26, 3-(4-Bromo-2-chloro-phenylamino)-furo[3,2-c]pyridine-2-carboxylic acid (2-hydroxy-ethoxy)-amide] | > 5.00
O=C(NCCCONC(=O)c1oc2ccncc2c1Nc1ccc(I)cc1F)c1ccncc1 [Example 48, (2-Fluoro-4-iodo-phenyl amino)-N-[3-(isonicotinamide)propoxy] furo[3,2-c]pyridine-2-carboxamide] | > 5.00
O=C(c1oc2ccncc2c1Nc1cc(F)c(Br)cc1F)N1CC[C@@H](O)C1 [Example 71, (3-(4-bromo-2,5-difluorophenylamino)furo[3,2-c]pyridin-2-yl)((R)-3-hydroxypyrrolidin-1-yl)methanone] | > 5.00
O=C(NOC1CCNCC1)c1oc2ccncc2c1Nc1ccc(I)cc1F [Example 20, 3-(2-Fluoro-4-iodo-phenylamino)-furo[3,2-c]pyridine-2-carboxylic acid (piperidin-4-yloxy)-amide mono formate salt] | > 5.00
C[C@@H](CO)NC(=O)c1oc2ccncc2c1Nc1ccc(I)cc1F [Example 76, 3-(2-fluoro-4-iodophenylamino)-N-((S)-1-hydroxypropan-2-yl)furo[3,2-c]pyridine-2-carboxamide] | > 5.00
NCCONC(=O)c1oc2ccncc2c1Nc1ccc(I)cc1F [Example 31, 3-(2-Fluoro-4-iodo-phenylamino)-furo[3,2-c]pyridine-2-carboxlic acid (2-amino-ethoxy)-amide] | > 5.00
NC(=O)c1oc2ccncc2c1Nc1ccc(I)cc1F [Example 21, 3-(2-Fluoro-4-iodo-phenylamino)-furo[3,2-c]pyridine-2-carboxylic acid amide] | > 5.00
CN(C)C(=O)c1oc2ccncc2c1Nc1ccc(I)cc1F [Example 83, 3-(2-fluoro-4-iodophenylamino)-N,N-dimethylfuro[3,2-c]pyridine-2-carboxamide] | > 5.00
O=C(c1oc2ccncc2c1Nc1ccc(I)cc1F)N1C[C@@H](O)[C@@H](O)C1 [Example 73, (3-(2-fluoro-4-iodophenylamino)furo[3,2-c]pyridin-2-yl)((3S,4R)-3,4-dihydroxypyrrolidin-1-yl)methanone] | > 5.00
O=C(NCCO)c1oc2ccncc2c1Nc1ccc(I)cc1F [Example 82, 3-(2-fluoro-4-iodophenylamino)-N-(2-hydroxyethyl)furo[3,2-c]pyridine-2-carboxamide] | > 5.00
CN(OCCO)C(=O)c1oc2ccncc2c1Nc1ccc(I)cc1F [Example 23, 3-(2-Fluoro-4-iodo-phenylamino)-furo[3,2-c]pyridine-2-carboxylic acid (2-hydroxy-ethoxyl)-methyl-amide] | > 5.00

Other lines, results leading:

pIC50 | SMILES
> 5.00 | C[C@H](O)CONC(=O)c1oc2ccncc2c1Nc1ccc(I)cc1F [Example 118, 3-(2-Fluoro-4-iodo-phenylamino)-furo[3,2-c]pyridine-2-carboxylic acid ((S)-2-hydroxy-propoxy)-amide]
> 5.00 | CSc1ccc(Nc2c(C(=O)NOCCO)oc3c(F)cncc23)c(F)c1 [Example 153, 7-Fluoro-3-(2-fluoro-4-methylsulfanyl-phenylamino)-furo[3,2-c]pyridine-2-carboxylic acid (2-hydroxy-ethoxy)-amide]
> 5.00 | O=C(c1oc2ccncc2c1Nc1ccc(I)cc1F)N1CCC1 [Example 148, azetidin-1-yl(3-(2-fluoro-4-iodophenylamino)furo[3,2-c]pyridin-2-yl)methanone]
> 5.00 | O=C(NCc1ncc[nH]1)c1oc2ccncc2c1Nc1ccc(I)cc1F [Example 137, 3-(2-Fluoro-4-iodo-phenylamino)-furo[3,2-c]pyridine-2-carboxylic acid (1H-imidazol-2-ylmethyl)-amide]
> 5.00 | CC1(C)OCC(CCNC(=O)c2oc3ccncc3c2Nc2ccc(I)cc2F)O1 (stereo not shown) [Example 92, 3-(2-fluoro-4-iodophenylamino)-N-(2-(2,2-dimethyl-1,3-dioxolan-4-yl)ethyl)furo[3,2-c]pyridine-2-carboxamide]
> 5.00 | O=C(c1oc2ccncc2c1Nc1ccc(I)cc1F)N1CCCC1 [Example 125, (3-(2-fluoro-4-iodophenylamino)furo[3,2-c]pyridin-2-yl)(pyrrolidin-1-yl)methanone]
> 5.00 | O=C(c1oc2ccncc2c1Nc1ccc(I)cc1F)N1C[C@H](O)C[C@@H]1CO [Example 126, (3-(2-fluoro-4-iodophenylamino)furo[3,2-c]pyridin-2-yl)((2R,4R)-4-hydroxy-2-(hydroxymethyl)pyrrolidin-1-yl)methanone]
> 5.00 | CC1(O)CCN(C(=O)c2oc3ccncc3c2Nc2ccc(I)cc2F)C1 (stereo not shown) [Example 120, (3-(2-fluoro-4-iodophenylamino)furo[3,2-c]pyridine-2-yl)(3-hydroxy-3-methylpyrrolidin-1-yl)methanone]
> 5.00 | O=C(NO[C@H]1CCNC1)c1oc2c(Cl)cncc2c1Nc1ccc(I)cc1F [Example 151, 7-Chloro-3-(2-fluoro-4-iodo-phenylamino)-furo[3,2-c]pyridine-2-carboxylic acid ((S)-pyrrolidin-3-yloxy)-amide]
> 5.00 | CC(C)(O)CONC(=O)c1oc2ccncc2c1Nc1ccc(I)cc1F [Example 112, 3-(2-Fluoro-4-iodo-phenylamino)-N-(2-Hydroxy-2-methylpropoxy)furo[3,2-c]pyridine-2-carboxamide]
> 5.00 | O=C(NOc1ccccc1)c1oc2ccncc2c1Nc1ccc(I)cc1F [Example 111, 3-(2-Fluoro-4-iodo-phenylamino)-N-phenyloxyfuro[3,2-c]pyridine-2-carboxamide]
> 5.00 | O=C(NCC[C@H](O)CO)c1oc2ccncc2c1Nc1ccc(I)cc1F [Example 95, 3-(2-fluoro-4-iodophenylamino)-N-((S)-3,4-dihydroxybutyl)furo[3,2-c]pyridine-2-carboxamide]
> 5.00 | O=C(NOC[C@H](O)CO)c1oc2c(Cl)cncc2c1Nc1ccc(I)cc1F [Example 138, 7-Chloro-3-(2-fluoro-4-iodo-phenylamino)-furo[3,2-c]pyridine-2-carboxylic acid ((R)-2,3-dihydroxy-propoxy)-amide]
> 5.00 | NC(=O)c1oc2c(Cl)cncc2c1Nc1ccc(I)cc1F [Example 108, 7-Chloro-3-(2-fluoro-4-iodo-phenylamino)-furo[3,2-c]pyridine-2-carboxylic acid amide]
> 5.00 | O=C(O)c1oc2c(Cl)cncc2c1Nc1ccc(I)cc1F [Example 107, 7-chloro-3-(2-fluoro-4-iodo-phenylamino)-furo[3,2-c]pyridine-2-carboxylic acid sodium salt]
> 5.00 | O=C(c1oc2ccncc2c1Nc1ccc(I)cc1F)N1C[C@H](O)[C@H](O)[C@H]1CO [Example 132, (3-(2-fluoro-4-iodophenylamino)furo[3,2-c]pyridin-2-yl)((2R,3R,4S)-3,4-dihydroxy-2-(hydroxylmethyl)pyrrolidin-1-yl)methanone]
